Drawing on US20080305111A1, “Anti-C35 antibodies for treating cancer” (VACCINEX, INC., priority 2006, published 2008), this text covers binding for one molecule.

These are yes or no findings as the source states them, for the method shown.

The target in the assay is β-galactosidase protein. The assay is described as follows: flow cytometry competition: 1F2-Alexa 647 pre-incubated with β-galactosidase protein, then staining of apoptotic Taxol-treated 21MT1 cells. On the technique in general: A flow cytometer gives signals particle by particle.

B1: 1F2 murine anti-C35 monoclonal antibody (antibody, V domains shown)
VH: DVQLQESGPGLVKPSQSLSLTCSVTGYSITSGYFWNWIRQFPGNKLEWMGYISYDGSNNSNPSLKNRISFTRDTSKNQFFLKFNSVTTDDSAAYYCTRGTTGFAYWGQGTLVTVSA
VL: QIVLTQSPAIMSASPGEKVTISCSASSSVSYMNWYQQKPGSSPKPWIYHTSNLASGVPARFSGSGSGTSYSLTISSMEAEDAATYYCQQYHSYPPTFGGGTKLEIK
As to B1, the binding entry is “no binding (tested: 100-fold molar excess over 100 ng 1F2)”.
